Measured values: patent publication US20130336951A1
These are yes or no findings as the source states them, for the method shown. For some of these results: Binding seen in cells or lysates may run through a third protein. Some entries that bind do so weakly or less than the wild type.

By UniProt entry, the sequences of proteins in these tests, tags left out. Where a name states a change or a piece, a line headed by the entry shows the natural chain unless it says otherwise. Chains listed by the source or under a name are the forms on record and can include a tag or linker. Residues count along the entry.
UniProt P04406, residues 2-335: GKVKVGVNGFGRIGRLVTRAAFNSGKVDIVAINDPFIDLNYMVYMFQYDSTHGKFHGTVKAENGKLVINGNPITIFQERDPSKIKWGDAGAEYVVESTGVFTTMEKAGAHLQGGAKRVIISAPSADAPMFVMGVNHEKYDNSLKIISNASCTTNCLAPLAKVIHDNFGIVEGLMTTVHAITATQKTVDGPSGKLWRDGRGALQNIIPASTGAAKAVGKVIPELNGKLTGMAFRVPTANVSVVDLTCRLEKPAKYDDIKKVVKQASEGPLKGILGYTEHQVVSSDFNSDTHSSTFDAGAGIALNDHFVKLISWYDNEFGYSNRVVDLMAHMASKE
UniProt Q9JM53, residues 102-612: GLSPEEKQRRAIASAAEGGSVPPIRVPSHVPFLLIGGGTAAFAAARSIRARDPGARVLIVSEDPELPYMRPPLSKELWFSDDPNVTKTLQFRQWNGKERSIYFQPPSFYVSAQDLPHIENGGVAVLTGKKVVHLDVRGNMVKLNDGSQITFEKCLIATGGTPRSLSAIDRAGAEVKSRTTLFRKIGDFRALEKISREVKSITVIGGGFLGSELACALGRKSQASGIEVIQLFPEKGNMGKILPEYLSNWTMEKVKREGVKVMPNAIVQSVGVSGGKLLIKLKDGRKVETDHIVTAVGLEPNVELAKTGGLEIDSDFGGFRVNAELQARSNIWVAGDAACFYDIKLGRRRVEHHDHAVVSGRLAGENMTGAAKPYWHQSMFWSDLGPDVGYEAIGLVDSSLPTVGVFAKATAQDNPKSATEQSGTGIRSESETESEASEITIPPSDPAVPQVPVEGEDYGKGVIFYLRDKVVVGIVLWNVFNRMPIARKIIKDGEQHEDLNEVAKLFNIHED
UniProt P10361: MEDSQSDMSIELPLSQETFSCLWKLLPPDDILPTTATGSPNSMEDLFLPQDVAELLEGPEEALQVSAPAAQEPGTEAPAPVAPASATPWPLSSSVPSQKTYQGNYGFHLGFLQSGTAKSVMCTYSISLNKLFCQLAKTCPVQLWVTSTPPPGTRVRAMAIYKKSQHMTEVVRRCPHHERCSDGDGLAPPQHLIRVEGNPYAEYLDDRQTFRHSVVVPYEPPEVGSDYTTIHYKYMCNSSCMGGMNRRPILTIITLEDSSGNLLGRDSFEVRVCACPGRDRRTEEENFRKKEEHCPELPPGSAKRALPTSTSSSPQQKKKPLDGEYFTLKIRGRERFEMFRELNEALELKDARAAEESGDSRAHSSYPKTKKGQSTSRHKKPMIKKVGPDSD
UniProt P19491: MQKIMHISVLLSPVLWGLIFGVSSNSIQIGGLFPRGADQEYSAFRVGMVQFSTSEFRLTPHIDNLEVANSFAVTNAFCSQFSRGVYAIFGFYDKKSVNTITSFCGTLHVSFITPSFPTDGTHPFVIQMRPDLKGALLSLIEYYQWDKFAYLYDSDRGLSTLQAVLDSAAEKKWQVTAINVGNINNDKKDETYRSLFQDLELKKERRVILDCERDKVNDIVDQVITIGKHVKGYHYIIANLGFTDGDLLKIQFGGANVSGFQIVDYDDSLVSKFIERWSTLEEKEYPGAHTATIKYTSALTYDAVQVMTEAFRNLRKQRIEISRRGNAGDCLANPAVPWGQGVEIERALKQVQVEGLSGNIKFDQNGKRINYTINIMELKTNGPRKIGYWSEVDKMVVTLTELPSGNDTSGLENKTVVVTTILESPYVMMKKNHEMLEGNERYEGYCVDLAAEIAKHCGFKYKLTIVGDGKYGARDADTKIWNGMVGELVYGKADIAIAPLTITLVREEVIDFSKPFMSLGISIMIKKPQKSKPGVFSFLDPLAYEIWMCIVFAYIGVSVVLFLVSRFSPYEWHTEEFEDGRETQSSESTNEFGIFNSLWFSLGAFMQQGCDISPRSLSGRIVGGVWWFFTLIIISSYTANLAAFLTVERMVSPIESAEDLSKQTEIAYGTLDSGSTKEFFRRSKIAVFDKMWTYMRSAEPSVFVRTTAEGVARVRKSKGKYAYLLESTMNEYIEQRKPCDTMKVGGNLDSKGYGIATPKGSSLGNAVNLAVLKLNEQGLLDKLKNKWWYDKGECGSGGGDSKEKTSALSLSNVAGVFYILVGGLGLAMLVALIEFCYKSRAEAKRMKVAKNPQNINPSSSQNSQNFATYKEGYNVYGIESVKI
GST-GluR2 NTa (V22-S271): residues 22-271 of P19491
GST-GluR2NT1-3 (H122-K172): residues 122-172 of P19491
GST-GluR2 NTa3 (H122-K171): residues 122-171 of P19491
GluR2-M3 187-188 KK->AA (P19491, form named): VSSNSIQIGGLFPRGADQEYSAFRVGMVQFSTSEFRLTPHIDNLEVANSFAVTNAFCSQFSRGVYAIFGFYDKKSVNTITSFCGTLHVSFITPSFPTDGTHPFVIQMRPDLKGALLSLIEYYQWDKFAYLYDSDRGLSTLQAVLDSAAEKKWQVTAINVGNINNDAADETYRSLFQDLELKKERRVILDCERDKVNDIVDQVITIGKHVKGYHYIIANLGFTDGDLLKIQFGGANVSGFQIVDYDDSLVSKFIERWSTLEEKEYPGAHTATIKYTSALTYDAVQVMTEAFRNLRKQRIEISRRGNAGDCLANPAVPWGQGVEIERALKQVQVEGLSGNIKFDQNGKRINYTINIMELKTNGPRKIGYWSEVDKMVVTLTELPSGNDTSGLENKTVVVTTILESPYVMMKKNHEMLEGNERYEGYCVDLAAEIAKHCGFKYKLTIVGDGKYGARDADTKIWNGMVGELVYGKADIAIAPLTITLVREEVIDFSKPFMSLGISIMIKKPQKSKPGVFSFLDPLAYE
GluR2-M2 171-172 KK->AA (P19491, form named): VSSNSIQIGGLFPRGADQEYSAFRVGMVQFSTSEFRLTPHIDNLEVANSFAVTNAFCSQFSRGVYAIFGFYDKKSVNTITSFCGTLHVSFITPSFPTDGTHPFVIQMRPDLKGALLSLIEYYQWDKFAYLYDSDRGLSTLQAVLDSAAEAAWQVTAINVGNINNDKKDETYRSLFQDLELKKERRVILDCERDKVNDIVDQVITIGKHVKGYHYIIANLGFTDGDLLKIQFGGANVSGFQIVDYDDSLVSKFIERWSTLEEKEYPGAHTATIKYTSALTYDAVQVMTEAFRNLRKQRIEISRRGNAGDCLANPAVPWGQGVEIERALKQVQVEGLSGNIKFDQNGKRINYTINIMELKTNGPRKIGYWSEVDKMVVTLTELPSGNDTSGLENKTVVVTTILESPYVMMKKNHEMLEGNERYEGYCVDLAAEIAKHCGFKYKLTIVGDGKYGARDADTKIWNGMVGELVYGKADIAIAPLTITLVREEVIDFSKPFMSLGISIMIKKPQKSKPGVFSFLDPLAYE
GluR2-M1 94-95 KK->AA (P19491, form named): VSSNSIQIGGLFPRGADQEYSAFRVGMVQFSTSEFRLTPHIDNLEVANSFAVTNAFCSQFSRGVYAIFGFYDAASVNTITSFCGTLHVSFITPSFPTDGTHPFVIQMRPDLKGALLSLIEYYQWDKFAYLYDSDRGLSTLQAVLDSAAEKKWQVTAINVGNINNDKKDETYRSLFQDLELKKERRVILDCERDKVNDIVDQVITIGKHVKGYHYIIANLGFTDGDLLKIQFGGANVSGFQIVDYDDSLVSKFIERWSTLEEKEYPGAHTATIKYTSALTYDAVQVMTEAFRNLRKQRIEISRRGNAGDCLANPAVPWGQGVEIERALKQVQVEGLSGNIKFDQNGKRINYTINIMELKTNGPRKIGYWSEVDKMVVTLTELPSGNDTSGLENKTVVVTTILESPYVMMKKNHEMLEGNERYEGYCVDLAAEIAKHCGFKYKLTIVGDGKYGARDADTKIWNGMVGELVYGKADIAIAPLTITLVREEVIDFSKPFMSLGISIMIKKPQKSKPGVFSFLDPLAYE

Tests used:
[1] = target: GAPDH endogenous to HEK293T cells (UniProt P04406); assay: immunoprecipitation (FIG. 26E)
[2] = target: GAPDH endogenous to HEK293T cells (UniProt P04406); assay: co-immunoprecipitation, transfected HEK 293T cells (FIG. 9)
[3] = target: GAPDH endogenous to HEK293T cells (UniProt P04406); assay: co-immunoprecipitation, HEK-293T cells expressing GluR1/2 (FIG. 21B)
[4] = target: GAPDH endogenous to HEK293T cells (UniProt P04406); assay: co-immunoprecipitation, transfected HEK293T cells (FIG. 8)
[5] = target: GAPDH endogenous to HEK293T cells (UniProt P04406); assay: co-immunoprecipitation, HEK293T cells co-expressing GluR1 and GluR2
[6] = target: GAPDH endogenous to HEK293T cells (UniProt P04406); assay: co-immunoprecipitation, transfected HEK 293T cells, with glutamate and CNQX (FIG. 8)
[7] = target: GAPDH endogenous to HEK293T cells (UniProt P04406); assay: co-immunoprecipitation, transfected HEK 293T cells (FIG. 7)
[8] = target: GAPDH endogenous to HEK293T cells (UniProt P04406); assay: co-immunoprecipitation, HEK-293T cells (FIG. 21B)
[9] = target: p53 of HEK-293T cells (UniProt P04637); assay: co-immunoprecipitation from nuclear proteins (FIG. 24B)
[10] = target: GAPDH endogenous to HEK293T cells (UniProt P04406); assay: GST pull-down from HEK-293T nuclear extracts (FIG. 24C)
[11] = target: Apoptosis inducing factor (AIF) from rat hippocampal extracts (rat) (UniProt Q9JM53); assay: GST pull-down from rat hippocampal extracts, Western blot (FIG. 20B)
[12] = target: p53, endogenous protein of rat hippocampus (rat) (UniProt P10361); assay: GST pull-down, Western blot (FIG. 24A)
[13] = target: Apoptosis inducing factor (AIF) from rat hippocampal extracts (rat) (UniProt Q9JM53); assay: GST pull-down, Western blot for AIF
[14] = target: GST-GluR2 NT1-3-2 (Y142-K172); assay: in vitro binding assay (FIG. 6L)
[15] = target: GST-GluR2 NTa (V22-S271) (UniProt P19491); assay: in vitro binding assay (FIG. 4C)
[16] = target: GST-GluR2 NT1-3-2 (Y142-K172); assay: repeated in vitro binding assay
[17] = target: GST-GluR2NT1-3 (H122-K172) (UniProt P19491); assay: repeated in vitro binding assay
[18] = target: GST-GluR2 NTa (V22-S271) (UniProt P19491); assay: repeated in vitro binding assay
[19] = target: GST-GluR2 NT1-3-2 (Y142-K172); assay: blot overlay with in vitro translated probe
[20] = target: GST-GluR2 NTa3 (H122-K171) (UniProt P19491); assay: blot overlay with in vitro translated probe
[21] = target: GST-GluR2 NTa (V22-S271) (UniProt P19491); assay: blot overlay with in vitro translated probe
[22] = target: GST-GluR2NT1-3 (H122-K172) (UniProt P19491); assay: in vitro binding assay (FIG. 6K)
[23] = target: GST-GluR2 NTa3 (H122-K171) (UniProt P19491); assay: in vitro binding assay (FIG. 5C)
[24] = target: GST-GluR2 NTa (V22-S271) (UniProt P19491); assay: in vitro binding assay (FIG. 6J)
[25] = target: GST-GluR2 NT1-3-2 (Y142-K172); assay: in vitro binding assay (FIG. 6C)

Measured: binding

GluR2-M3 187-188 KK->AA (from UniProt P19491 22-545) (receptor)
binds: [1]

GluR2 subunit expressed in HEK-293T cells together with GluR1 (from UniProt P19491 22-883) (receptor)
binds: [2] | [3] | [4] | [5] | [6] | [7] | [8]

GAPDH endogenous to HEK293T cells (from UniProt P04406 2-335) (enzyme)
binds: [9]

GluR2-M2 171-172 KK->AA (from UniProt P19491 22-545) (receptor)
binds: [1]

GST-GluR2NT (V22-E545) (from UniProt P19491 22-545)
binds: [10]

GST-GAPDH (from UniProt P04406 1-335)
binds: [11] | [12] | [13]

GluR2-M1 94-95 KK->AA (from UniProt P19491 22-545) (receptor)
binds: [1]

[35S]-GAPDH probe (in vitro translated, [35S]-methionine labelled GAPDH) (from UniProt P04406 1-335) (enzyme)
binds: [14] | [15] | [16] | [17] | [18] | [19] | [20] | [21] | [22] | [23] | [24] | [25]

GluR2NT wild type (FIG. 26E) (from UniProt P19491 22-545) (receptor)
binds: [1]
